The nature of data set [1]: peptide made by a vendor (Fmoc solid-phase peptide synthesis; 2-chlorotrityl resin ([…]); DIC/oxyma). Conditions: whole synthesis, LCMS, scale 2 µmol.
Data set [2] in a line: general procedure: Fmoc solid-phase peptide synthesis; 2-chlorotrityl resin ([…]); DIC/oxyma. Particulars: whole synthesis, LCMS, scale of the general procedure 2 µmol (crude high-throughput peptides).

Plain letter strings leave the end groups untold.

Regarding ANFSGYGMGHOOJ, in data set [1], the “crude LC-MS purity” value stood at 79.5%.

With FNASGYGMGHOOJ, the “crude LC-MS purity” value in data set [1] was found to be 69.6%.

Consider FNFSGYGMGHOOJ, for which the “crude LC-MS purity” value in data set [1] worked out at 72.4%.

For the sequence FSIVGOOJ, the “final LC-MS purity” value in data set [2] is reported as over 98%.

For the origin of these results see article PMC9546861 (2022).
